The values that follow come from PMC3791449, “Mechanism of amyloid β−protein dimerization determined using single−molecule AFM force spectroscopy” (Scientific Reports, 2013).

This data set concerns misfolded Aβ dimers. Kind of data set: Contour length analysis of interacting segments within Aβ dimers. It counts as binding, human. To be noted: for contour length, major contribution / maximum: Supplementary Figs. S3a-S5a, loading rate not given. From the text:
We used the contour length measurements to identify segments of the peptides involved in dimer formation. The measured contour length is comprised of the length of the flexible tethers used for peptide immobilization and the length of the segment of the peptide from the anchoring point to the rupture position. The latter, according to the schematic in Fig. 1, was obtained by subtracting the lengths of all linkers from the measured contour lengths.
Probing interactions of Aβ peptides within a dimer by SMFS provides a pattern of peptide interactions within the dimers. According to the immobilization procedure, the peptide is covalently bound at its N−terminal cysteine. The experimentally measured contour length consists of two major components, the lengths of the flexible tethers used for peptide immobilization and the length of the peptide segment between the N−terminus and the segment of the peptide involved in interpeptide interactions. Therefore, the position of the peak on the force−distance curve is defined by the peptide length between the N−terminus and the interacting segment. […] The closer the interacting segment is to the N−terminus, the shorter the contour length will be when measured by AFM. […] The contour length of PEG 3400 was estimated to be 22.0 ± 0.9 nm[28]. Lengths of both aminopropyl silatrane (APS) and MAS were ~ 2.5 nm[13]. Therefore, the total length of all linkers was 24.5 ± 0.9 nm. In addition, the distance between N−termini of two peptides was estimated to be 1.0 nm.
All cysteinyl−Aβ peptides were synthesized using 9−fluorenylmethoxycarbonyl (FMOC) chemistry and purified by reverse phase high performance liquid chromatography (RP−HPLC). The identity and purity (usually > 97%) of the peptides were confirmed by amino acid analysis followed by mass spectrometry and RP−HPLC. Functionalization of AFM tips and mica substrates were prepared according to previously published procedures. Briefly, 20 nM Aβ monomers were immobilized on mica functionalized with aminopropyl silatrane (APS) via PEG 3400 tethers and on AFM tips through maleimide silatrane (MAS). For DFS study, the tip retraction speeds ranged from 100 nm/s to 4000 nm/s. The dwell time was set at 0.3 s when retraction speed reached 1000 nm/s and above. Force curves with rupture event were subject to WLC analysis, as shown below. [drawing 1] Rupture force distributions were fitted with a probability density function: [drawing 2] Dynamic force spectra were fitted with Bell−Evans model[21]: [drawing 3] The energy profiles were reconstructed according to previous papers, using the equation below. [drawing 4] Positions of interacting segments of Aβ monomers within dimers were estimated by subtracting from the measured contour lengths the lengths of all linkers and the distance between N−termini of monomers (see Fig. 1a). The contour length of PEG was estimated with the following equation[28]: [drawing 5] Where Lc(F) is the contour length, Ns is the average number of monomers, Lplanar is the length of monomers with planar conformation, Lhelical is the length of monomers with helical conformation, ΔG(F) is the free energy difference at zero appling force. The Ns is 77 ± 10 for 3400 Da PEG. The Lplanar and Lhelical are 3.58 Å and 2.8 Å, respectively. The ΔG(F) is fixed at 3 kBT. The contour length of PEG was thus estimated to be 22.0 ± 0.9 nm. All error bars represent SEM. Detailed methods can be found in Supplementary Information.

The mark [1] stands for this setting: contour length minus linkers, converted to residues, Fig. 5a.
Setting [2] is: loading rates of 5000−7000 pN/s, WLC fit, includes linkers.

Take “Aβ40: alloform of human amyloid β−protein; cysteinyl−Aβ peptide, Cys residue placed at the N−terminus”: under setting [1], the “length of N-terminal segment, peak 2” value is ~ 20 residues and the “length of N-terminal segment, peak 3” value is given as about 35 residues. Also, the “contour length, major data cluster” value under setting [2] was “around 33 nm”.
As to “Aβ42: alloform of human amyloid β−protein with two additional C−terminal residues; cysteinyl−peptide”, the “contour length, major contribution / maximum” value (includes linkers) is ~ 56 nm.
On the same count and under the same terms, with “[VPV]Aβ42: Aβ42 with VPV substitutions (Gly33Val−Val36Pro−Gly38Val); cysteinyl−peptide” the figure was ~ 42 nm.
For the substance “[VPV]Aβ40: Aβ40 mutant with VPV substitutions (Gly33Val−Val36Pro−Gly38Val); cysteinyl−peptide”, under setting [2], the “contour length, major data cluster” value is on record as ~ 42 nm; the “contour length, minor data cluster” value was ~ 33 nm; the “contour length, second (comparable) data cluster” value is given as ~ 57 nm. For the same substance, the “contour length at which doubled rupture forces occur” value (scatter plot Fig. 4c, loading rates of 5000−7000 pN/s) is ~ 32 nm.
